The assay has as its system CD2F1 mice, L1210 leukemia ip, survival T/C. As to the kind of experiment: NCI In Vivo Anticancer Drug Screen. Data for tumor model L1210 Leukemia (intraperitoneal) in CD2F1 (CDF1) mice. The note with it: higher T/C = longer survival. In outline: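 Mice carrying a transplanted tumor received test compound or vehicle alone. The value is the measurement in the treated group divided by that in the vehicle-treated control group.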

Setting [1] is: T/C endpoint: mean survival time, dose: 100.0 mg/kg/injection, schedule: Q04DX003 (ip), vehicle: saline.
[2] abbreviates: T/C endpoint: mean survival time, dose: 200.0 mg/kg/injection, schedule: Q04DX003 (ip), vehicle: saline.
The mark [3] stands for this setting: T/C endpoint: mean survival time, dose: 400.0 mg/kg/injection, schedule: Q04DX003 (ip), vehicle: saline.
Setting [4] is: T/C endpoint: mean survival time, dose: 400.0 mg/kg/injection, schedule: Q01DX001 (ip), vehicle: saline.
The mark [5] stands for this setting: T/C endpoint: mean survival time, dose: 50.0 mg/kg/injection, schedule: Q01DX009 (ip), vehicle: saline.
The mark [6] stands for this setting: T/C endpoint: mean survival time, dose: 100.0 mg/kg/injection, schedule: Q04DX003 (ip), vehicle: saline with Tween-80.
The mark [7] stands for this setting: T/C endpoint: mean survival time, dose: 200.0 mg/kg/injection, schedule: Q04DX003 (ip), vehicle: saline with Tween-80.
The mark [8] stands for this setting: T/C endpoint: mean survival time, dose: 400.0 mg/kg/injection, schedule: Q04DX003 (ip), vehicle: saline with Tween-80.

From PubChem BioAssay AID256 (DTP/NCI, 2004) come the findings set out here.

Molecules are shown by their SMILES. The list does not hold the whole screen: it gathers tests that were run many times, whatever their T/C, doses with no T/C, and many T/C values between a quarter and a half above the control. Further doses and runs are listed elsewhere. T/C: endpoint of the treated group in % of that of the vehicle group. Some doses have a count of surviving animals in place of a T/C: the source holds a T/C of zero for them, seemingly a mark for toxic or unscored doses. Some survivor counts are full or nearly so, which does not show that the dose was tolerated: survival well below the control is almost never listed, so the zero probably covers shortened survival too. Survivors were counted at the toxicity check, usually on the fifth day, unless a day is given; later deaths do not show. Schedule codes are those of the source, read here as Q, the interval in days (D) or hours (H), X, the number of doses. Some structures stand for samples that the source files as different forms (salt, stereo form or complex); doses refer to the form tested. Where survival is the endpoint, the PubChem record calls one and a half times the control and up active, and a quarter to a half above the control has no call in these data; cut-offs in other NCI protocols can differ. Some T/C values are followed by the survivors on the day toxicity was checked, most often the fifth; where none is given, no animal had died by that day.

For the molecule `O=CN(O)CC(=O)O.[Cu]`, the survivor count reads like this: (T/C endpoint: mean survival time, dose: 12.5 mg/kg/injection, schedule: Q01DX009 (ip), vehicle: acetone) 0 of 6; (T/C endpoint: mean survival time, dose: 25.0 mg/kg/injection, schedule: Q04DX003 (ip), vehicle: saline) 1 of 6; (T/C endpoint: mean survival time, dose: 50.0 mg/kg/injection, schedule: Q04DX003 (ip), vehicle: saline) 1 of 6; under setting [1], 0 of 6; under setting [2], 0 of 6; under setting [3], 0 of 6.

As for `Cn1c2ccccc2c2cc[n+]3c(c21)CCCC3`, the T/C (T/C endpoint: mean survival time, dose: 100.0 mg/kg/injection, schedule: Q01DX001 (ip), vehicle: saline) is 127 % of control [4 of 6 alive]. Also, the survivor count by setting is: (T/C endpoint: mean survival time, dose: 200.0 mg/kg/injection, schedule: Q01DX001 (ip), vehicle: saline) 0 of 6; under setting [4], 0 of 6.

On to `C[CH2][Sn]([Cl])([CH2]C)[c]1cc[c]([Sn]([Cl])([CH2]C)[CH2]C)cc1`, for which the survivor count (T/C endpoint: median survival time, dose: 0.25 mg/kg/injection, schedule: Q01DX005 (ip), vehicle: Klucel (hydroxypropylcellulose) (HPC)) was 3 of 6; the survivor count (T/C endpoint: median survival time, dose: 0.5 mg/kg/injection, schedule: Q01DX005 (ip), vehicle: Klucel (hydroxypropylcellulose) (HPC)) is recorded as 0 of 6; the survivor count (T/C endpoint: median survival time, dose: 1.0 mg/kg/injection, schedule: Q01DX005 (ip), vehicle: Klucel (hydroxypropylcellulose) (HPC)) was 0 of 6; the survivor count (T/C endpoint: median survival time, dose: 240.0 micrograms/kg/injection, schedule: Q01DX005 (ip), vehicle: Klucel (hydroxypropylcellulose) (HPC)) is given as 1 of 6.

As for `COc1ccc(/C=C2/CCOC2=O)cc1`, the survivor count by setting is: (T/C endpoint: mean survival time, dose: 100.0 mg/kg/injection, schedule: Q04DX002 (ip), vehicle: Klucel (hydroxypropylcellulose) (HPC)) 0 of 3; (T/C endpoint: mean survival time, dose: 200.0 mg/kg/injection, schedule: Q04DX002 (ip), vehicle: Klucel (hydroxypropylcellulose) (HPC)) 0 of 3; (T/C endpoint: mean survival time, dose: 400.0 mg/kg/injection, schedule: Q04DX002 (ip), vehicle: Klucel (hydroxypropylcellulose) (HPC)) 0 of 3.

Turning to `COC(OC)c1[nH]c(=O)[nH]c(=O)c1F.[Hg]`, the survivor count runs as follows: (T/C endpoint: mean survival time, dose: 100.0 mg/kg/injection, schedule: Q04DX003 (ip), vehicle: saline sonified) 1 of 6; (T/C endpoint: mean survival time, dose: 200.0 mg/kg/injection, schedule: Q04DX003 (ip), vehicle: saline sonified) 0 of 6; (T/C endpoint: mean survival time, dose: 400.0 mg/kg/injection, schedule: Q04DX003 (ip), vehicle: saline sonified) 0 of 6.

With `CC(C)=NNCCO`, the survivor count under setting [5] is recorded as 0 of 5.

Turning to `CC1CC([NH-])C([NH-])C(C)(C)C1.[Cl][Pt+2][Cl]` (configuration not stated), the T/C by setting is: (T/C endpoint: median survival time, dose: 20.0 mg/kg/injection, schedule: Q04DX003 (ip), vehicle: Klucel (hydroxypropylcellulose) (HPC)) 125 % of control; (T/C endpoint: median survival time, dose: 40.0 mg/kg/injection, schedule: Q04DX003 (ip), vehicle: Klucel (hydroxypropylcellulose) (HPC)) 136 % of control; (T/C endpoint: median survival time, dose: 80.0 mg/kg/injection, schedule: Q04DX003 (ip), vehicle: Klucel (hydroxypropylcellulose) (HPC)) 147 % of control; (T/C endpoint: median survival time, dose: 200.0 mg/kg/injection, schedule: Q04DX003 (ip), vehicle: Klucel + Tween-80) 147 % of control.

In the case of `CCOC(=S)SSC(=S)OCC`, the survivor count (T/C endpoint: mean survival time, dose: 400.0 mg/kg/injection, schedule: Q01DX001 (ip), vehicle: Klucel (hydroxypropylcellulose) (HPC)) is listed as 1 of 3.

In the case of `Cc1ccc(S(=O)(=O)Nc2c([N+](=O)[O-])cc([N+](=O)[O-])c3ccccc23)cc1`, the survivor count was 1 of 6 under setting [6], 0 of 6 under setting [7] and 0 of 6 under setting [8].

Turning to `Cc1cc2nc(Cc3ccccc3)[nH]c2cc1C`, under setting [8], the survivor count was 0 of 6.

In the case of `C=CCNC(=O)C[n+]1cccc(C(=O)Nc2ccc(Cl)cc2)c1`, the survivor count was 0 of 6 under setting [7] and 0 of 6 under setting [8].

`Cn1nnc2c(C(N)=O)ncn2c1=O`: the T/C (T/C endpoint: median survival time, dose: 25.0 mg/kg/injection, schedule: Q01DX009 (ip), vehicle: saline with Tween-80) was 139 % of control. The survivor count (T/C endpoint: median survival time, dose: 400.0 mg/kg/injection, schedule: Q01DX009 (ip), vehicle: saline with Tween-80) is given as 4 of 6.

For the molecule `COC(=O)[C@@H]1[C@@H](O)[C@H](OC(=O)c2cc(OC)c(OC)c(OC)c2)C[C@@H]2CN3CCc4c([nH]c5ccccc45)[C@H]3C[C@@H]21`, the survivor count (T/C endpoint: mean survival time, dose: 12.5 mg/kg/injection, schedule: Q01DX009 (ip), vehicle: saline with Tween-80) is given as 6 of 6; the survivor count (T/C endpoint: mean survival time, dose: 25.0 mg/kg/injection, schedule: Q01DX009 (ip), vehicle: saline with Tween-80) is on record as 2 of 6; the survivor count (T/C endpoint: mean survival time, dose: 50.0 mg/kg/injection, schedule: Q01DX009 (ip), vehicle: saline with Tween-80) is given as 0 of 6; the survivor count under setting [6] is reported as 2 of 6; the survivor count under setting [7] is reported as 4 of 6; the survivor count under setting [8] was 0 of 6.

As for `COc1ccc(C(=O)N/N=C(\C)[C@]2(O)Cc3c(O)c4c(c(O)c3[C@@H](OC3CC(N)C(O)C(C)O3)C2)C(=O)c2c(OC)cccc2C4=O)cc1` (some centres not stated), for the setting “T/C endpoint: mean survival time, dose: 8.0 mg/kg/injection, schedule: Q01DX009 (ip), vehicle: water”, the T/C was 136 % of control. For the same molecule, where the note is “T/C endpoint: mean survival time, dose: 16.0 mg/kg/injection, schedule: Q01DX009 (ip), vehicle: water”, the survivor count is given as 6 of 6.

As for `Cc1c2c(ccc3ccccc32)c[n+]2ccccc12`, the survivor count is on record as 0 of 6 (T/C endpoint: mean survival time, dose: 25.0 mg/kg/injection, schedule: Q01DX009 (ip), vehicle: saline) and 0 of 6 under setting [5].

Take `COc1ccc(C2=NNC(=O)CC2)cc1OC`: the survivor count is given as 1 of 3 under setting [1], 0 of 3 under setting [2] and 0 of 3 under setting [3].

Take `Nc1ncc(C=O)c(N)n1`: the survivor count (T/C endpoint: mean survival time, dose: 50.0 mg/kg/injection, schedule: Q01DX009 (ip), vehicle: Klucel (hydroxypropylcellulose) (HPC)) is reported as 3 of 3; the survivor count (T/C endpoint: mean survival time, dose: 100.0 mg/kg/injection, schedule: Q01DX009 (ip), vehicle: Klucel (hydroxypropylcellulose) (HPC)) was 1 of 3; the survivor count (T/C endpoint: mean survival time, dose: 200.0 mg/kg/injection, schedule: Q01DX009 (ip), vehicle: Klucel (hydroxypropylcellulose) (HPC)) is reported as 1 of 3.

Regarding `C=CC(=O)NC(C)(C)CC(C)(C)C`, the survivor count reads like this: (T/C endpoint: mean survival time, dose: 200.0 mg/kg/injection, schedule: Q01DX009 (ip), vehicle: saline with Tween-80) 6 of 6; (T/C endpoint: mean survival time, dose: 400.0 mg/kg/injection, schedule: Q01DX009 (ip), vehicle: saline with Tween-80) 0 of 6.

Regarding `CC1=CC(C)(N=[N+]=[N-])CC(C)(C)C1` (configuration not stated), under “T/C endpoint: mean survival time, dose: 150.0 mg/kg/injection, schedule: Q01DX009 (ip), vehicle: saline”, the survivor count is recorded as 0 of 6.

For `O=C(NO)Nc1ccccc1`, the survivor count is, setting by setting: (T/C endpoint: mean survival time, dose: 140.0 mg/kg/injection, schedule: Q03HX024 (ip), vehicle: saline with Tween-80) 6 of 8; (T/C endpoint: mean survival time, dose: 210.0 mg/kg/injection, schedule: Q03HX024 (ip), vehicle: saline with Tween-80) 6 of 8.

`c1ccc2c(-c3nn[nH]n3)nccc2c1`: under setting [4], the survivor count is 0 of 3.

As to `COC(=O)NC1C(C)OC(OC2C/C=C(/C)C3C=CC4C(OC5CC(OC6CC(OC7CC(O)C(O)C(C)O7)C(OC7CC(O)C(OC)C(C)O7)C(C)O6)C(O)C(C)O5)C(C)CC(C)C4C3(C)/C(O)=C3\C(=O)OC4(CC(C)C(CO)=CC4/C=C\2C)C3=O)CC1(C)[N+](=O)[O-]` (configuration not stated), the survivor count runs as follows: (T/C endpoint: median survival time, dose: 100.0 mg/kg/injection, schedule: Q01DX009 (ip), vehicle: water) 5 of 5; (T/C endpoint: median survival time, dose: 200.0 mg/kg/injection, schedule: Q01DX009 (ip), vehicle: water) 0 of 6.

Turning to `C[N+](C)(C)CCCCC[N+](C)(C)C`, the survivor count was 0 of 6 under setting [1]; 0 of 6 under setting [7]; 0 of 6 under setting [2]; 0 of 6 under setting [8]; 0 of 6 under setting [3].
